Assay results taken from PMC12573823.
These are yes or no findings as the source states them, for the method shown. In cells and extracts the contact can be indirect. Some entries that bind do so weakly or less than the wild type. Each block holds one molecule with its values, some of them ahead of it.

Protein sequences, listed by entry. Tags and fused reporters are not part of them.
UniProt Q8R4B8: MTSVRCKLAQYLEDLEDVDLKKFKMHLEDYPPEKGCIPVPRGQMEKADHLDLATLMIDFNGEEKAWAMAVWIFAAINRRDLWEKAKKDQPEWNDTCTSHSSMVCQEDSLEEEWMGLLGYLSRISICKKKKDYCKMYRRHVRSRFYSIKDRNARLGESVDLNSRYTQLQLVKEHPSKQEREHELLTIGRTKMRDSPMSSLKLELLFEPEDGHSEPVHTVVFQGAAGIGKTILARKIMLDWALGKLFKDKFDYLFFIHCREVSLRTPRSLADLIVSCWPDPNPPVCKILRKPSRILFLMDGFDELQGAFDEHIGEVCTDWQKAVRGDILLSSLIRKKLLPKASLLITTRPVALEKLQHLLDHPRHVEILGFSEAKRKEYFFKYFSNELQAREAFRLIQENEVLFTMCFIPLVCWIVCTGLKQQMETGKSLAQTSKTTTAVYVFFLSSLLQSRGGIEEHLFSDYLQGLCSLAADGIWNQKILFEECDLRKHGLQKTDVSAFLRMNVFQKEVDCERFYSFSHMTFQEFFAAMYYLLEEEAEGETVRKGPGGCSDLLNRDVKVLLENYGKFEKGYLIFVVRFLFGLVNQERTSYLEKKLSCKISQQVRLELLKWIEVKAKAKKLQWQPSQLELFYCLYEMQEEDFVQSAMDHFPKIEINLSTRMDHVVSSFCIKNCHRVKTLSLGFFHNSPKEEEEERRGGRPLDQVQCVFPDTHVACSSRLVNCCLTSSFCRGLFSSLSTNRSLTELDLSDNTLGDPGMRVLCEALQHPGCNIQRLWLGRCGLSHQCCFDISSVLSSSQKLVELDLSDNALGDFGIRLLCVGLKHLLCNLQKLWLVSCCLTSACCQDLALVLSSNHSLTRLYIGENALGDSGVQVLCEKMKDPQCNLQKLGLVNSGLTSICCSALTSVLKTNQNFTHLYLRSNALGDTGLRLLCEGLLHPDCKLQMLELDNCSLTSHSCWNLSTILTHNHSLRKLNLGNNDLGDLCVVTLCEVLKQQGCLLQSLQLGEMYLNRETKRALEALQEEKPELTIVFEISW

Tests used:
[1] = biological target: T1, Double-stranded RNA-dependent protein kinase (PKR) (mouse (endogenous in mouse NP cells)) (UniProt Q03963); assay: co-IP; mouse NP cell (PKR+/+) lysates; immunoprecipitation with anti-PKR antibody and reciprocal immunoprecipitation of NLRP3, Western blot; also cells treated with palmitic acid (more complex) or palmitic acid with the PKR inhibitor 2-AP (complex formation markedly restrained)
T1 sequence: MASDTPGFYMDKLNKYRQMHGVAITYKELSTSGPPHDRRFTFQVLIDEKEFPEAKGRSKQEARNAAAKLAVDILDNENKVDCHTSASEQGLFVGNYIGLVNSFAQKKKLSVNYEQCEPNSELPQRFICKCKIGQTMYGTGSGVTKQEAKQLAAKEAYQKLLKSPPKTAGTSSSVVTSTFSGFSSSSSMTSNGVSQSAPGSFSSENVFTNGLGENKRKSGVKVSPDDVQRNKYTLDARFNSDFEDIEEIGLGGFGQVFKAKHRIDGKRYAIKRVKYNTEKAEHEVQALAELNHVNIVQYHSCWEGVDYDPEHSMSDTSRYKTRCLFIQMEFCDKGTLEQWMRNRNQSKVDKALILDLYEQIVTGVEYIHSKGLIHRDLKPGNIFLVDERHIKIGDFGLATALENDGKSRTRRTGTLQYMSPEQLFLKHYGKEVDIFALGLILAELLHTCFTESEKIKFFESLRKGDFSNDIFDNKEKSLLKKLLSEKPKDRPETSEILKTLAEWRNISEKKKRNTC

[2] = biological target: NLRP3 (mouse (endogenous in mouse NP cells)) (UniProt Q8R4B8); assay: as above

- binding [1]: binds
Molecule: NLRP3 (from UniProt Q8R4B8 1-1033)

- binding [2]: binds
B1: Double-stranded RNA-dependent protein kinase (PKR) (protein, UniProt Q03963 1-515)
chain: T1 sequence
